Measured values: the supplement of paper PMC12823440, “Inhibitors supercharge kinase turnover through native proteolytic circuits” (Nature, 2025)
The list shows a part of the results. The calls rarely recur for the same compound in another form.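 Kinases were expressed as nanoluciferase fusions in K562 cells and luminescence was read every 4 h between 2 and 18 h as percent of control, DMSO set to 100% and a positive control to 0%. A time point counts as decreased when the signal drops significantly (2 sigma). The hit call is the authors' own, does not follow from the count of time points alone, and its rule is not shown.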

Amino acid sequences for entries named in this document (tags omitted). A change or cut given only in a name is not applied to a line headed by its entry.
UniProt P07948: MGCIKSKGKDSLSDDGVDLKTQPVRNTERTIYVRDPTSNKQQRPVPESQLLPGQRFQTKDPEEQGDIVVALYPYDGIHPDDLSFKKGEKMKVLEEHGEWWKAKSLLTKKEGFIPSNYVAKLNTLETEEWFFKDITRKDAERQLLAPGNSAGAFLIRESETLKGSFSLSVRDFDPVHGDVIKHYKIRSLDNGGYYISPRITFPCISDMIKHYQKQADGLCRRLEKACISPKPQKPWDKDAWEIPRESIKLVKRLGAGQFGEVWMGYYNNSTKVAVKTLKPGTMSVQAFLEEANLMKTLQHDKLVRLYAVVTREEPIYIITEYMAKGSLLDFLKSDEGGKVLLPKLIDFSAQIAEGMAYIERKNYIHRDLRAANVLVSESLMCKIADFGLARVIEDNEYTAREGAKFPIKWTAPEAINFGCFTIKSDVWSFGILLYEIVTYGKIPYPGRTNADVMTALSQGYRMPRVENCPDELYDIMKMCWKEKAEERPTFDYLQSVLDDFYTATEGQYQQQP

What follows are compounds tested against LYN (UniProt P07948) (assay: number of time points (of 5) at which kinase-Nluc abundance scored as decreased, DMSO-normalised (count); higher = more persistent destabilization). Settings: K562; 2-18 h.

For `O=Nc1c(-c2c(O)[nH]c3cc(Br)ccc23)[nH]c2ccccc12` [GSK 3 Inhibitor IX] (2.5 µM), which “number of time points” value is on record?
The value was 0.

With `Cn1c2cc([S+](C)[O-])sc2c2cnn(Cc3cccc(N)c3)c(=O)c21` (stereo not drawn) (2.5 µM) as the compound, how does the “number of time points” value read?
The value was 0.

How did the “number of time points” value turn out when `Cc1cc(-n2c(=O)ccc3c[nH]c4nccc-4c32)ccc1F` (10 µM) was run?
Its value is 0.

How did the “number of time points” value turn out when `CCCn1/c(=N/C(=O)c2cccc(C(N)=O)c2)[nH]c2ccccc21` [Takinib] (10 µM) was run?
The value was 0.

How did the “number of time points” value turn out when `CO[C@H]1C[C@@H]2CC[C@@H](C)[C@@](O)(O2)C(=O)C(=O)N2CCCC[C@H]2C(=O)O[C@H]([C@H](C)C[C@@H]2CC[C@@H](OCCO)[C@H](OC)C2)CC(=O)[C@H](C)/C=C(\C)[C@@H](O)[C@@H](OC)C(=O)[C@H](C)C[C@H](C)/C=C/C=C/C=C/1C` [Everolimus] (10 µM) was run?
The value was 0.

Which “number of time points” value does the source give for `Cc1cccc(-c2[nH]ncc2-c2ccnc3ccccc23)n1` (10 µM) here?
The value was 0.

How did the “number of time points” value turn out when `CC1(N)CCN(c2cccnc2NC(=O)c2nc(-c3ncccc3C(F)(F)F)cnc2N)CC1` [Darovasertib] (10 µM) was run?
Its value is 0.

For `COc1cc2c(cc1Nc1ncc(C(N)=O)c(Nc3c(F)cccc3C(F)(F)F)n1)CN(C)CC2` (2.5 µM), which “number of time points” value is on record?
The value was 0.

How did the “number of time points” value turn out when `COc1cc2ncnc(Nc3ccc(O)c(Br)c3)c2cc1OC` (10 µM) was run?
The value was 0.

`Nc1nc2c(nc(Br)n2[C@@H]2O[C@@H]3COP(=O)(O)O[C@H]3[C@H]2O)c(=O)[nH]1` [8-Bromo-cGMP (sodium)] (10 µM) was tested. Which “number of time points” value did it give?
Its value is 0.

With `O=c1c2c([nH]n1-c1nc3ccccc3s1)CCCC2` (10 µM) as the compound, how does the “number of time points” value read?
The value was 0.

With `COC(=O)Nc1ccc(-c2nc(N3CCOCC3)c3cnn(C4CCN(Cc5cccnc5)CC4)c3n2)cc1` (10 µM) as the compound, how does the “number of time points” value read?
Its value is 0.

For `N[C@@H]1CCCN(c2c(/C=C3\SC(=O)NC3=O)cccc2-c2ccccc2)C1` (10 µM), which “number of time points” value is on record?
Its value is 0.

For `Nc1nc(N)c2nc(-c3cccc(O)c3)c(-c3cccc(O)c3)nc2n1` (10 µM), which “number of time points” value is on record?
The value was 0.

Which “number of time points” value does the source give for `Cn1ncc(NC(=O)c2nc(-c3c(F)cccc3F)sc2N)c1N1CC[C@@H](N)[C@H](F)CC1` (10 µM) here?
Its value is 0.

With `C=C1C(=O)[C@@]23[C@H](O)C[C@@H]4C(C)(C)C(=O)CC[C@@]4(C)[C@@H]2CC[C@@H]1[C@H]3O` [Glaucocalyxin A] (2.5 µM) as the compound, how does the “number of time points” value read?
The value was 0.

`O=C(NCCO)c1cc(C(=O)NCCO)cc(C(=O)NCCO)c1` (10 µM) was tested. Which “number of time points” value did it give?
Its value is 0.

With `CCC(=O)Nc1cccc(Oc2nc(Nc3ccc(N4CCN(C)CC4)cc3OC)ncc2Cl)c1` (10 µM) as the compound, how does the “number of time points” value read?
The value was 0.

`Cc1nn(C)cc1-c1nc2c(N3CCN(Cc4ccc(Cl)cc4)CC3)c(Cl)cnc2[nH]1` (10 µM) was tested. Which “number of time points” value did it give?
The value was 0.

Which “number of time points” value does the source give for `CC(C)Oc1ccc(F)c(-c2cnc(N)c(C(=O)Nc3cnccc3N3CCC[C@@H](C(=O)O)C3)n2)c1` (2 µM) here?
Its value is 0.

Which “number of time points” value does the source give for `Nc1ncc(C(=O)NC2CN(C(=O)C3CC3)C2)c2ccc(-c3cccc(F)c3)nc12` (2 µM) here?
Its value is 0.

How did the “number of time points” value turn out when `O=C(ON=C1c2ccccc2-c2nc3ccccc3nc21)c1ccco1` (2.5 µM) was run?
The value was 0.

Which “number of time points” value does the source give for `CC(C)=CC[C@@H](O)C1=CC(=O)c2c(O)ccc(O)c2C1=O` [Shikonin] (10 µM) here?
Its value is 0.

How did the “number of time points” value turn out when `COC(=O)Nc1ccc(-c2nc(N3CCOCC3)c3cnn(C4CCN(C(=O)OC)CC4)c3n2)cc1` (10 µM) was run?
The value was 0.

For `CNC(=O)c1ccc2c(c1)ncn2-c1ccc(CC(=O)OC(C)(C)C)cc1` (10 µM), which “number of time points” value is on record?
The value was 0.

`O=C1CC[C@H](NC(=O)Cc2ccccc2)C(=O)N1` [Antineoplaston A10] (10 µM) was tested. Which “number of time points” value did it give?
The value was 0.

How did the “number of time points” value turn out when `COCCOCCc1c(C)c2cc(OC)c(O)c(C=O)c2oc1=O` (10 µM) was run?
Its value is 0.

How did the “number of time points” value turn out when `Cc1ccc(C(=O)NC2CC2)cc1-n1ncc(C(=O)c2cccc(C#N)c2)c1N` [Acumapimod] (10 µM) was run?
Its value is 0.

`O=C(NCCN1CCOCC1)Nc1nc2ccc(Sc3nnc4ccc(-c5ccc(F)cc5)nn34)cc2s1` (10 µM) was tested. Which “number of time points” value did it give?
The value was 0.

How did the “number of time points” value turn out when `COc1cc(F)ccc1-c1ncnc(Nc2cccc(C[S@](C)(=N)=O)c2)n1` [Atuveciclib] (2.5 µM) was run?
The value was 0.

With `CCn1c(-c2nonc2N)nc2c(C#CC(C)(C)O)ncc(OC[C@H]3CCCNC3)c21` (10 µM) as the compound, how does the “number of time points” value read?
Its value is 0.

Which “number of time points” value does the source give for `O=c1[nH]ccc2nc(-c3ccc(CN4CCC(c5nc(-c6ccccn6)n[nH]5)CC4)cc3)c(-c3ccccc3)cc12` (10 µM) here?
Its value is 0.

For `COCCOc1ccc2c(c1)ncn2-c1ccc2cccc(N3CCC(N)CC3)c2n1` (10 µM), which “number of time points” value is on record?
Its value is 0.
